Results are given in words; binding and its absence hold for the method and conditions named. In cells and extracts the contact can be indirect. Some results given as binding are weak or reduced against the parent protein; the word gives no strength.
Target: Peroxisome proliferator-activated receptor δ (PPARδ) (rat (endogenous in H9c2)) (UniProt Q62879)
Experiment: co-IP; nuclear protein fraction of H9c2 cells (supplemented with benzonase) precipitated with anti-PPARδ antibody, western blot with anti-Bcl6 antibody; cells pre-treated with or without L-165041 (10 µmol/L, 2 h), then with or without doxorubicin 0.1 µM or 1 µM (3 h), analysed after 24 h

The chains behind the UniProt entries cited, without tags or fusion partners. Where a name states a change or a piece, a line headed by the entry shows the natural chain unless it says otherwise.
UniProt Q62879: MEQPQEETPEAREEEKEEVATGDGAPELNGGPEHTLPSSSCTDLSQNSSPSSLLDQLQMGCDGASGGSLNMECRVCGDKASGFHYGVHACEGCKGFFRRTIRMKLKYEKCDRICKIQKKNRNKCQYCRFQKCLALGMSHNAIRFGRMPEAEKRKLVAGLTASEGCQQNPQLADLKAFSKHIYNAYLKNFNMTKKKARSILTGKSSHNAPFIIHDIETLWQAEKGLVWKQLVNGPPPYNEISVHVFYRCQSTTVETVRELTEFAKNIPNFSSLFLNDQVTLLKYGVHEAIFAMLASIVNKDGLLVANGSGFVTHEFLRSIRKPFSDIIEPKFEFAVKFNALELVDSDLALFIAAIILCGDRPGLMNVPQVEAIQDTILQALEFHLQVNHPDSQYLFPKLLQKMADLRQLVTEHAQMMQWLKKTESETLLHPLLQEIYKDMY

In the case of “B cell lymphoma-6 (Bcl6) (from UniProt F7FPB9 1-707)”, the binding is reported as “binds”.

Reference: PMC3458009
